The record followed here is patent US20100130725A1, “METHODS FOR CHARACTERIZING MOLECULES” (priority 2008, published 2010).

This data set deals with quiescent A431 cells. As to the kind of experiment: Epic DMR two-step assay, antagonist mode: modulation of marker-induced DMR signals in quiescent A431 cells. In kind it is cell-based, human. Particulars: 10 μM, score +1 per 10% modulation. The protocol:
For biosensor cellular assays, molecule solutions were made by diluting the stored concentrated solutions with the HBSS (1× Hanks balanced salt solution, plus 20 mM Hepes, pH 7.1), and transferred into a 384 well polypropylene molecule storage plate to prepare a molecule source plate. Both molecule and marker source plates were made separately when a two-step assay was performed. In parallel, the cells were washed twice with the HBSS and maintained in 30 μl of the HBSS to prepare a cell assay plate. Both the cell assay plate and the molecule and marker source plate(s) were then incubated in the hotel of the reader system. After ˜1 hr of incubation the baseline wavelengths of all biosensors in the cell assay microplate were recorded and normalized to zero. Afterwards, a 2 to 10 minute continuous recording was carried out to establish a baseline, and to ensure that the cells reached a steady state. Cellular responses were then triggered by pipetting 10 μl of the marker solutions into the cell assay plate using the on-board liquid handler.
Next, the target specificity and signaling pathway of EGF was probed using a second set of assays.
A first panel of markers was contacted with quiescent A431 cells at concentrations close to each of the marker's EC80 or EC100, and DMR measurements were obtained with and EPIC® system. This panel of markers was selected from a library of markers identified in A431 cells using Epic® cellular assays. This panel included epidermal growth factor (EGF), epinephrine, nicotinic acid, and histamine. Each of these markers leads to a wide array of cell signaling. […] Each DMR signal represents an averaged response of 4 replicates.
A DMR index was generated for four ligand molecules. Quiescent A431 and proliferating A549 cells were separately exposed to the ligand molecules for about 1 hr to generate their primary profiles, followed by stimulation with each marker at a fixed concentration (as mentioned in FIGS. 7 and 8) for another 1 hr or so to generate secondary profiles of the molecule against the panels of markers in both types of cells. Next, one or more specific DMR parameters were chosen as a readout for plotting the DMR index of the molecule. For the pinacidil DMR response in A549, the amplitude of the N-DMR (i.e., the amplitude 30 min after stimulation) was chosen. For the poly(I:C) DMR response in A549, the amplitude of the late DMR (i.e., the amplitude 50 min after stimulation) was chosen. For the PMA response in A549, the late DMR amplitude (i.e., the amplitude 50 min after stimulation) was chosen.

With `CNCCNS(=O)(=O)c1cccc2cnccc12` [H8], the “modulation index score, EGF (N-DMR)” value is −2; the “modulation index score, EGF (P-DMR)” value is given as 0.3; the “modulation index score, epinephrine” value was −1.6; the “modulation index score, histamine” value was 1.6. Further, the “modulation index score, nicotinic acid” value is listed as 1.
